The test system of this test is P388 leukemia ip, CD2F1 mice, survival T/C. In words: NCI In Vivo Anticancer Drug Screen. Data for tumor model P388 Leukemia (intraperitoneal) in CD2F1 (CDF1) mice. The settings on record: T/C endpoint: median survival time, higher T/C = longer survival.
Where [1] appears, read: dose: 400.0 mg/kg/injection, schedule: Q04DX003 (ip), vehicle: saline with Tween-80.
The mark [2] stands for this setting: dose: 400.0 mg/kg/injection, schedule: Q01DX009 (ip), vehicle: saline.
[3] abbreviates: dose: 200.0 mg/kg/injection, schedule: Q01DX005 (ip), vehicle: saline with Tween-80.
Where [4] appears, read: dose: 60.0 mg/kg/injection, schedule: Q01DX005 (ip), vehicle: saline with Tween-80.
[5] abbreviates: dose: 120.0 mg/kg/injection, schedule: Q01DX005 (ip), vehicle: saline with Tween-80.
Setting [6] is: dose: 240.0 mg/kg/injection, schedule: Q01DX005 (ip), vehicle: saline with Tween-80.
Setting [7] is: dose: 200.0 mg/kg/injection, schedule: Q04DX002 (ip), vehicle: saline with Tween-80.

The list is a part of this screen's results and no random one: it gathers tests that were run many times, whatever their T/C, doses with no T/C, and many T/C values between a quarter and a half above the control. Further doses and runs are listed elsewhere. T/C is the treated group as % of the vehicle group. Some doses have a count of surviving animals in place of a T/C: the source files T/C as zero there, which appears to mark a toxic dose or a test without result, not a measured value. Some survivor counts are full or nearly so, which does not show that the dose was tolerated: survival well below the control is almost never listed, so the zero probably covers shortened survival too. Survivors were counted at the toxicity check, usually on the fifth day, unless a day is given; later deaths do not show. Schedules are NCI's codes, read here as Q, the interval in days (D) or hours (H), X, the number of doses. Some entries were tested several times; their values stand side by side, smallest first. Some schedule codes hold Z or #, which are not explained here. Where survival is the endpoint, this PubChem deposit counts one and a half times the control or more as active, and values a quarter to a half above the control carry no call in these data; other NCI protocols may use other cut-offs. Some T/C values are followed by the survivors on the day toxicity was checked, most often the fifth; where none is given, no animal had died by that day.

With `[CH3][Sn]([Cl])([Cl])[c]1ccccc1`, the survivor count is, setting by setting: (dose: 12.5 mg/kg/injection, schedule: Q04DX003 (ip), vehicle: saline) 3 of 6; (dose: 25.0 mg/kg/injection, schedule: Q04DX003 (ip), vehicle: saline) 0 of 6; (dose: 100.0 mg/kg/injection, schedule: Q04DX003 (ip), vehicle: saline with Tween-80) 0 of 6; (dose: 200.0 mg/kg/injection, schedule: Q04DX003 (ip), vehicle: saline with Tween-80) 0 of 6; under setting [1], 0 of 6.

With `CC(=O)Nc1ccc(S(=O)(=O)/C(=C/c2ccc(-c3ccc(Br)cc3)o2)c2ccc([N+](=O)[O-])o2)cc1`, where the note is “dose: 200.0 mg/kg/injection, schedule: Q01DX009 (ip), vehicle: suspension in saline”, the survivor count is 6 of 6.

`Cc1csc2cc(Br)c3ccccc3c12`: under “dose: 400.0 mg/kg/injection, schedule: Q01DX001 (ip), vehicle: saline with Tween-80”, the survivor count is 6 of 6.

With `CCSc1ncnc2c1ncn2C1OC(CO)C(O)C1O` (centres undefined), under setting [1], the survivor count was 3 of 6.

`COc1cc2c[n+]3ccccc3c(N)c2cc1OC`: the survivor count (dose: 400.0 mg/kg/injection, schedule: Q04DX003 (ip), vehicle: distilled water + Tween-80) is 1 of 6.

Take `O=C(O)C1=CO[C@@H](OC2OC(CO)C(O)C(O)C2O)[C@H]2[C@@H]1C=C[C@]2(O)CO` (some centres undefined): the survivor count reads like this: (dose: 18.75 mg/kg/injection, schedule: Q01DX009 (ip), vehicle: Klucel (hydroxypropylcellulose) (HPC)) 5 of 6; (dose: 37.5 mg/kg/injection, schedule: Q01DX009 (ip), vehicle: Klucel (hydroxypropylcellulose) (HPC)) 6 of 6; (dose: 150.0 mg/kg/injection, schedule: Q01DX009 (ip), vehicle: Klucel (hydroxypropylcellulose) (HPC)) 6 of 6.

Turning to `CCCCOc1cccc2c(NCCCCCCCCNc3c4ccccc4nc4c(OCCCC)cccc34)c3ccccc3nc12`, the survivor count (dose: 20.0 mg/kg/injection, schedule: Q## X009 (ip), vehicle: lactic acid) was 1 of 6.

Consider `Nc1ccc(S(=O)(=O)Nc2c(N)[nH]c(=S)[nH]c2=O)cc1`, for which the T/C (dose: 60.0 mg/kg/injection, schedule: Q01DX005 (ip), vehicle: Klucel (hydroxypropylcellulose) (HPC)) was 141 % of control and the T/C (dose: 120.0 mg/kg/injection, schedule: Q01DX005 (ip), vehicle: Klucel (hydroxypropylcellulose) (HPC)) was 136 % of control [4 of 6 alive]. The survivor count (dose: 240.0 mg/kg/injection, schedule: Q01DX005 (ip), vehicle: Klucel (hydroxypropylcellulose) (HPC)) is reported as 3 of 6.

As to `CC1=CC2(C)OC(=O)N(c3ccccc3)C2N=C1` (centres undefined), the survivor count (dose: 200.0 mg/kg/injection, schedule: Q01DX009 (ip), vehicle: Klucel (hydroxypropylcellulose) (HPC)) is recorded as 0 of 6.

For `COC1=CC2C3Cc4c(-c5cc(OC)c(O)c6c5CC5C7C=C(OC)C(=O)CC67CCN5C)cc(OC)c(O)c4C2(CCN3C)CC1=O` (centres undefined), the survivor count (dose: 200.0 mg/kg/injection, schedule: Q01DX009 (ip), vehicle: saline with Tween-80) is reported as 1 of 6.

On to `O=c1cccc[nH]1`, for which, under setting [2], the T/C was 136 % of control. Besides, the survivor count by setting is: (dose: 600.0 mg/kg/injection, schedule: Q01DX009 (ip), vehicle: saline) 3 of 6; (dose: 800.0 mg/kg/injection, schedule: Q01DX009 (ip), vehicle: saline) 0 of 6 and 2 of 6.

In the case of `COc1cccc2c1C(=O)c1c(O)c3c(c(O)c1C2=O)CC(O)(C(C)=O)CC3OC1CC(NCC2(O)OCC(O)C(OC3OC(CO)C(O)C(O)C3O)C2O)C(O)C(C)O1` (centres undefined), the T/C (dose: 12.5 mg/kg/injection, schedule: Q04DX003 (ip), vehicle: water) was 128 % of control.

For the molecule `CCCCCCCCS(=O)(=O)NC`, the survivor count (dose: 50.0 mg/kg/injection, schedule: Q01DX009 (ip), vehicle: saline) is recorded as 6 of 6; the survivor count (dose: 100.0 mg/kg/injection, schedule: Q01DX009 (ip), vehicle: saline) is on record as 6 of 6; the survivor count (dose: 200.0 mg/kg/injection, schedule: Q01DX009 (ip), vehicle: saline) is reported as 6 of 6; the survivor count under setting [2] is given as 6 of 6.

With `CS(=O)(=O)OCC1NC(=O)C(COS(C)(=O)=O)NC1=O` (centres undefined), the survivor count runs as follows: (dose: 200.0 mg/kg/injection, schedule: Q01DX009 (ip), vehicle: other) 4 of 6; (dose: 400.0 mg/kg/injection, schedule: Q01DX009 (ip), vehicle: other) 0 of 6.

Take `O/N=C/c1ccc(Cl)cc1Cl`: where the note is “dose: 400.0 mg/kg/injection, schedule: Q01DX005 (ip), vehicle: saline with Tween-80”, the survivor count is listed as 1 of 6.

`C=C1C(=O)OC2/C=C(\C)CC(O)/C=C(/CO)CC(OC(=O)/C(C)=C/C)C12` (centres undefined): the T/C is, setting by setting: (dose: 15.0 mg/kg/injection, schedule: Q01DX009 (ip), vehicle: saline + alcohol) 128 % of control; (dose: 20.0 mg/kg/injection, schedule: Q01DX009 (ip), vehicle: saline + alcohol) 148 % of control; (dose: 30.0 mg/kg/injection, schedule: Q01DX009 (ip), vehicle: saline + alcohol) 128 % of control [5 of 6 alive]; (dose: 40.0 mg/kg/injection, schedule: Q01DX009 (ip), vehicle: saline + alcohol) 130 % of control; (dose: 60.0 mg/kg/injection, schedule: Q01DX009 (ip), vehicle: saline + alcohol) 131 % of control.

As for `CCCC(=O)O`, under setting [2], the survivor count is 1 of 6.

Turning to `CN1CCN=C1c1ccc(NC(=O)c2ccc(C(=O)Nc3ccc(C4=NCCN4C)cc3)c([N+](=O)[O-])c2)cc1`, the T/C (dose: 3.13 mg/kg/injection, schedule: Q01DX005 (ip), vehicle: saline with Tween-80) was 127 % of control. The survivor count (dose: 6.25 mg/kg/injection, schedule: Q01DX005 (ip), vehicle: saline with Tween-80) was 0 of 6 and 1 of 6; the survivor count (dose: 12.5 mg/kg/injection, schedule: Q01DX005 (ip), vehicle: saline with Tween-80) is on record as 0 of 6; the survivor count (dose: 25.0 mg/kg/injection, schedule: Q01DX005 (ip), vehicle: saline with Tween-80) is 0 of 6; the survivor count (dose: 50.0 mg/kg/injection, schedule: Q01DX005 (ip), vehicle: saline with Tween-80) is listed as 0 of 6; the survivor count (dose: 100.0 mg/kg/injection, schedule: Q01DX005 (ip), vehicle: saline with Tween-80) is listed as 0 of 6; the survivor count under setting [3] was 0 of 6.

Turning to `CC1=C[C@@H]2c3cccc4c3c(cn4C)C[C@H]2N(C)C1`, under setting [3], the survivor count was 2 of 6.

As for `CCCCCCCCCCCCCC[N+](C)(CC(=O)[O-])Cc1ccccc1` (centres undefined), the survivor count reads like this: under setting [4], 3 of 6; under setting [5], 2 of 6; under setting [6], 0 of 6.

With `CC(=O)O.Cl.NC1C([O-])OC(CO)C(O)C1O.O=C1OC(C(O)CO)C([O-])=C1[OH2+].[Cu+2]` (centres undefined), the survivor count (dose: 30.0 mg/kg/injection, schedule: Q01DX005 (ip), vehicle: saline with Tween-80) is 0 of 6; the survivor count under setting [4] is 0 of 6; the survivor count under setting [5] is listed as 0 of 6; the survivor count under setting [6] is listed as 0 of 6.

As to `CN=C(N)N/N=C(\C)c1ccc2c(c1)-c1ccc(/C(C)=N/NC(N)=NC)c3cccc-2c13`, the survivor count was 1 of 6 (dose: 50.0 mg/kg/injection, schedule: Q04DX002 (ip), vehicle: saline with Tween-80); 0 of 6 (dose: 100.0 mg/kg/injection, schedule: Q04DX002 (ip), vehicle: saline with Tween-80); 1 of 6 under setting [7].

Consider `[Cl][Pt+2][Cl].[NH-]CC(=O)O.[NH-]CC(=O)O`, for which the T/C reads like this: (dose: 6.25 mg/kg/injection, schedule: Q01DX009 (ip), vehicle: water) 128 % of control; (dose: 25.0 mg/kg/injection, schedule: Q01DX009 (ip), vehicle: water) 128 % of control. Further, the survivor count (dose: 100.0 mg/kg/injection, schedule: Q01DX009 (ip), vehicle: water) is listed as 6 of 6.

With `CC1(C)COC(=O)/C1=C\C#N`, the survivor count (dose: 400.0 mg/kg/injection, schedule: Q04DX003 (ip), vehicle: Klucel (hydroxypropylcellulose) (HPC)) is 2 of 5.

Take `C/C(=N\NC(N)=Nc1ccccc1)c1ccc2c(c1)Cc1ccccc1-2`: the survivor count is on record as 1 of 6 under setting [7] and 1 of 6 (dose: 400.0 mg/kg/injection, schedule: Q04DX002 (ip), vehicle: saline with Tween-80).

The values above are taken from PubChem BioAssay AID330 (DTP/NCI, 2004).
